No constants are given. Whether binding was seen depends on the method and setting. In cells and extracts the contact can be indirect. A result given as binding can be weak or reduced; the word gives no strength.
Target: PI3K (endogenous in rat retinal ganglion cells) (rat (endogenous in primary RGCs))
Test: proximity ligation; Duolink PLA with PI3K and ZC3H14 primary antibodies on fixed primary rat RGCs; untreated, PDGFbb or PDGFab treated (signal increased by PDGFab)

B1: ZC3H14 (endogenous in rat retinal ganglion cells) (protein, UniProt Q7TMD5 1-736)
chain: MEIGTEISRKIRSAIKGKLQELGAYVDEELPDYIMVMVANKKSQDQMTEDLSLFLGNNTIRFTVWLHGVLDKLRSVTTEPSSLKSPDTSIFDSNVPSNKSSFSRGDERRHEAAIPPLAVSSSRPEKRDSRVSTSSQEHKSTNVRHSYDDGASTRLMSTVKPLREPAPSEDVIDIKPEPDDLIDEDLNFVQENSLSQKKPTVTLTYGSSRPSIEIYRPPASRNADTGTHLNRPQLQQQQSSTHTAKQLDGQSSQVYEAGRLCEPEVLGSVEDTYSPFFRNNLDKMNIEEENFRKRKLPVVSSVVKVKRFSHDGEEEEEDEDYGTRVGSLSSSVSVPAKPERRPSLPPSKQANKNLILKAISEAQESVTKTTNYPAVPQKQTLPVAPRTRTSQEEVLAEMVQGQNRAPRISPPVKEEEAKGDNAEKIEGTQQRQLLSRLQIDPVTVDTMELSQDYYDMESMVHADTRSFILKKPKLSEEIVVTPNQDSGMKTADALRVLSGHLMQTRDLVQPDKPASPKFIVTLDGVPSPPGYMSDQEEEMCFEGMKPVNQTSASNKGLRGLLHPQQLHLLSRQLEDPDGSFSNAEMTDLSVAQKPEKLLERCKYWPACKNGDECVYHHPISPCKAFPNCKFAEKCLFVHPNCKYDAKCTKADCPFTHMSRRGPVLTPKPAVSSPAPSSNGQFCRYFPACKKMECPFYHPKHCRFNTQCTRPDCTFYHPTITVPPRHALKWIRPQTSE
- binding: binds

From article PMC7948738
